{"source": "PubChem BioAssay AID493246 | Drosophila RNAi Screening Center | 2011", "assay": "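Genome-wide search for dsRNAs that reduce cell number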 (primary screen)", "cells": "Drosophila Kc and S2R+ cells", "reagent": "long dsRNA against Drosophila genes", "measured": "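Cell number per well after knock-down, printed as raw plate values; calls were based on per-plate z-scores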", "scale": "Kc cell number and S2R+ cell number: higher = more cells remaining", "rule for the call": "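Counted as a hit if cell number falls by a z-score of at least 3 within its plate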", "note": "The deposit covers about 21,000 reagents; shown is an unselected part of those with a known target gene and a result. In the full data, 429 (2%) got an active call. 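Values are raw and not normalised between plates; calls rest on per-plate z-scores that were not deposited.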 Entries without a mark were called inactive. Not stated in the record: the amount of reagent, the time to read-out."}
{"target gene": "CG33769", "amplicon": "DRSC11716", "Kc cell number, rep 1": 1.84e6, "Kc cell number, rep 2": 1.78e6, "S2R+ cell number, rep 1": 1.27e6, "S2R+ cell number, rep 2": 1.56e6}
{"target gene": "CG6583", "amplicon": "DRSC02972", "Kc cell number, rep 1": 1.51e6, "Kc cell number, rep 2": 1.56e6, "S2R+ cell number, rep 1": 1.20e6, "S2R+ cell number, rep 2": 1.35e6}
{"target gene": "CG1671", "amplicon": "DRSC06617", "Kc cell number, rep 1": 1.28e6, "Kc cell number, rep 2": 1.34e6, "S2R+ cell number, rep 1": 1.05e6, "S2R+ cell number, rep 2": 1.15e6}
{"target gene": "CG42268", "amplicon": "DRSC10171", "Kc cell number, rep 1": 1.47e6, "Kc cell number, rep 2": 1.55e6, "S2R+ cell number, rep 1": 1.22e6, "S2R+ cell number, rep 2": 1.38e6}
{"target gene": "CG42268", "amplicon": "DRSC10702", "Kc cell number, rep 1": 1.43e6, "Kc cell number, rep 2": 1.55e6, "S2R+ cell number, rep 1": 1.42e6, "S2R+ cell number, rep 2": 1.52e6}
{"target gene": "lky (leaky)", "amplicon": "DRSC20682", "Kc cell number, rep 1": 1.48e6, "Kc cell number, rep 2": 1.50e6, "S2R+ cell number, rep 1": 1.08e6, "S2R+ cell number, rep 2": 1.18e6}
{"target gene": "CG6659", "amplicon": "DRSC20003", "Kc cell number, rep 1": 1.77e6, "Kc cell number, rep 2": 1.78e6, "S2R+ cell number, rep 1": 1.13e6, "S2R+ cell number, rep 2": 1.24e6}

Just “Kc cell number, rep 1”, for 2 of the entries above:
CG33769 [DRSC11716]: 1.84e6
CG6583 [DRSC02972]: 1.51e6

Next results follow.
{"target gene": "CG13794", "amplicon": "DRSC02298", "Kc cell number, rep 1": 1.62e6, "Kc cell number, rep 2": 1.64e6, "S2R+ cell number, rep 1": 1.18e6, "S2R+ cell number, rep 2": 1.30e6}
{"target gene": "ATPsynbeta (ATP synthase, beta subunit)", "amplicon": "DRSC17194", "Kc cell number, rep 1": "7.62e5 (active)", "Kc cell number, rep 2": 8.29e5, "S2R+ cell number, rep 1": 7.90e5, "S2R+ cell number, rep 2": 8.97e5}
{"target gene": "DhpD (Dihydropterin deaminase)", "amplicon": "DRSC12288", "Kc cell number, rep 1": 1.61e6, "Kc cell number, rep 2": 1.63e6, "S2R+ cell number, rep 1": 1.45e6, "S2R+ cell number, rep 2": 1.45e6}
{"target gene": "dpr5 (defective proboscis extension response 5)", "amplicon": "DRSC15766", "Kc cell number, rep 1": 1.43e6, "Kc cell number, rep 2": 1.42e6, "S2R+ cell number, rep 1": 1.26e6, "S2R+ cell number, rep 2": 1.27e6}
{"target gene": "Cdk7 (Cyclin-dependent kinase 7)", "amplicon": "DRSC18451", "Kc cell number, rep 1": 1.66e6, "Kc cell number, rep 2": 1.69e6, "S2R+ cell number, rep 1": 1.12e6, "S2R+ cell number, rep 2": 1.22e6}
{"target gene": "Mat89Ba (Maternal transcript 89Ba)", "amplicon": "DRSC14540", "Kc cell number, rep 1": 1.44e6, "Kc cell number, rep 2": 1.62e6, "S2R+ cell number, rep 1": 1.13e6, "S2R+ cell number, rep 2": 1.20e6}
{"target gene": "CG14280", "amplicon": "DRSC14761", "Kc cell number, rep 1": 1.42e6, "Kc cell number, rep 2": 1.48e6, "S2R+ cell number, rep 1": 9.69e5, "S2R+ cell number, rep 2": 1.03e6}
